For 20 compounds, survivor count and T/C results are on record in PubChem BioAssay AID330 (DTP/NCI, 2004).

Structures are written as SMILES. The list is a part of this screen's results and no random one: it gathers tests that were run many times, whatever their T/C, doses with no T/C, and many T/C values between a quarter and a half above the control. Further doses and runs are listed elsewhere. T/C gives the treated animals as a percentage of the vehicle group. Some entries give survivors of the animals treated and no T/C: the source files T/C as zero there, which appears to mark a toxic dose or a test without result, not a measured value. Some doses without a T/C left all or most animals alive at the check, yet need not have been tolerated: survival well below the control is almost never listed, so the zero probably covers shortened survival too. Counts of survivors are from the toxicity check (mostly the fifth day) where no day follows; animals may have died later. Schedules are NCI's codes, taken here to give the interval after Q, in days (D) or hours (H), and the number of doses after X. Some entries were tested several times; the results are listed from low to high. Where survival is the endpoint, the PubChem record calls one and a half times the control and up active, and a quarter to a half above the control has no call in these data; cut-offs in other NCI protocols can differ. Some T/C values are followed by the survivors on the day toxicity was checked, most often the fifth; where none is given, no animal had died by that day.

The experiment has as its system P388 leukemia ip, CD2F1 mice, survival T/C. Kind of experiment: NCI In Vivo Anticancer Drug Screen. Data for tumor model P388 Leukemia (intraperitoneal) in CD2F1 (CDF1) mice. The settings on record: T/C endpoint: median survival time, higher T/C = longer survival.
The mark [1] stands for this setting: dose: 200.0 mg/kg/injection, schedule: Q01DX009 (ip), vehicle: Klucel (hydroxypropylcellulose) (HPC).
The mark [2] stands for this setting: dose: 50.0 mg/kg/injection, schedule: Q01DX009 (ip), vehicle: saline.
Setting [3] is: dose: 200.0 mg/kg/injection, schedule: Q01DX009 (ip), vehicle: saline.
Setting [4] is: dose: 400.0 mg/kg/injection, schedule: Q04DX003 (ip), vehicle: saline with Tween-80.
The mark [5] stands for this setting: dose: 200.0 mg/kg/injection, schedule: Q01DX009 (ip), vehicle: saline with Tween-80.

For the compound `COc1cc2cc(c1Cl)N1CC(O)C(C)(O)C(=O)NC(C)C(=O)OC(CC1=O)C1(C)OC1C(C)C1CC(O)(NC(=O)O1)C(OC)/C=C\C=C(\C)C2OC` (stereo not drawn), the survivor count is, setting by setting: (dose: 0.12 mg/kg/injection, schedule: Q01DX009 (ip), vehicle: none) 0 of 4; (dose: 0.25 mg/kg/injection, schedule: Q01DX009 (ip), vehicle: none) 0 of 4; (dose: 0.5 mg/kg/injection, schedule: Q01DX009 (ip), vehicle: none) 0 of 4; (dose: 1.0 mg/kg/injection, schedule: Q01DX009 (ip), vehicle: none) 0 of 4; (dose: 31.0 micrograms/kg/injection, schedule: Q01DX009 (ip), vehicle: none) 4 of 4; (dose: 32.0 micrograms/kg/injection, schedule: Q01DX009 (ip), vehicle: distilled water + alcohol) 6 of 6. Moreover, the survivor count (dose: 62.0 micrograms/kg/injection, schedule: Q01DX009 (ip), vehicle: none) is 1 of 4. Besides, the T/C by setting is: (dose: 2.0 micrograms/kg/injection, schedule: Q01DX009 (ip), vehicle: distilled water + alcohol) 144 % of control; (dose: 4.0 micrograms/kg/injection, schedule: Q01DX009 (ip), vehicle: distilled water + alcohol) 137 % of control; (dose: 8.0 micrograms/kg/injection, schedule: Q01DX009 (ip), vehicle: distilled water + alcohol) 146 % of control; (dose: 16.0 micrograms/kg/injection, schedule: Q01DX009 (ip), vehicle: distilled water + alcohol) 137 % of control.
As to `COc1ccc2nc3c(=O)[nH]c(=O)nc-3n(CC(O)C(O)C(O)CO)c2c1` (stereo not drawn), the survivor count runs as follows: (dose: 200.0 mg/kg/injection, schedule: Q04DX002 (ip), vehicle: saline) 3 of 6; (dose: 400.0 mg/kg/injection, schedule: Q04DX002 (ip), vehicle: saline) 1 of 6.
On to `Nc1c(/C=C/c2cc3cc(C4=NCCN4)ccc3o2)[nH]c2cc(C3=NCCN3)ccc12`, for which the T/C (dose: 12.5 mg/kg/injection, schedule: Q01DX005 (ip), vehicle: Klucel (hydroxypropylcellulose) (HPC)) is 128 % of control; the T/C (dose: 25.0 mg/kg/injection, schedule: Q01DX005 (ip), vehicle: Klucel (hydroxypropylcellulose) (HPC)) is 139 % of control; the T/C (dose: 50.0 mg/kg/injection, schedule: Q01DX005 (ip), vehicle: Klucel (hydroxypropylcellulose) (HPC)) was 143 % of control [5 of 6 alive]. Moreover, for the setting “dose: 200.0 mg/kg/injection, schedule: Q01DX005 (ip), vehicle: Klucel (hydroxypropylcellulose) (HPC)”, the survivor count is 0 of 6.
Regarding `Nc1nc(=S)c2ncn(C3OC(CO)CC3O)c2[nH]1` (stereo not drawn), the T/C is 133 % of control (dose: 37.5 mg/kg/injection, schedule: Q04DX003 (ip), vehicle: saline); 141 % of control (dose: 40.0 mg/kg/injection, schedule: Q04DX003 (ip), vehicle: saline); 133 % of control (dose: 60.0 mg/kg/injection, schedule: Q04DX003 (ip), vehicle: saline); 129 % of control (dose: 75.0 mg/kg/injection, schedule: Q04DX003 (ip), vehicle: saline).
Regarding `Cc1nn(C(=O)c2ccncc2)c(C)c1N=Nc1ccc(S(N)(=O)=O)cc1`, the survivor count under setting [1] is given as 6 of 6.
For `N#Cc1ccc(NC(=O)Nc2cccc(C#N)c2)cc1`, where the note is “dose: 120.0 mg/kg/injection, schedule: Q01DX005 (ip), vehicle: saline with Tween-80”, the survivor count is 6 of 6.
As to `Nc1ccccn1`, the survivor count under setting [2] was 0 of 6; the survivor count (dose: 100.0 mg/kg/injection, schedule: Q01DX009 (ip), vehicle: saline) was 0 of 6; the survivor count under setting [3] is listed as 0 of 6.
As to `CN1CCC2(CC1)N=C1CCN(C)CC1S2` (stereo not drawn), the survivor count (dose: 400.0 mg/kg/injection, schedule: Q01DX001 (ip), vehicle: saline with Tween-80) is reported as 0 of 6.
As for `CN(C)c1ccc(/C=C/c2ccc3ccccc3n2)cc1`, the survivor count reads like this: (dose: 200.0 mg/kg/injection, schedule: Q04DX003 (ip), vehicle: saline with Tween-80) 6 of 6; under setting [4], 6 of 6.
Turning to `CC(=O)CC(=O)Cc1oc2c(C(C)=O)c(O)c(C)c(O)c2c1C`, the survivor count is 3 of 3 (dose: 100.0 mg/kg/injection, schedule: Q01DX009 (ip), vehicle: saline with Tween-80); 6 of 6 under setting [5]; 3 of 3 and 6 of 6 (dose: 400.0 mg/kg/injection, schedule: Q01DX009 (ip), vehicle: saline with Tween-80).
Regarding `CC1(C)C(=O)C(C)(C)C1O`, the survivor count (dose: 400.0 mg/kg/injection, schedule: Q01DX009 (ip), vehicle: saline) is recorded as 1 of 6.
Consider `C[N+](C)(Cn1nc(Cl)c2cc([N+](=O)[O-])ccc21)Cn1nc(Cl)c2cc([N+](=O)[O-])ccc21`, for which the survivor count reads like this: (dose: 100.0 mg/kg/injection, schedule: Q04DX003 (ip), vehicle: saline with Tween-80) 6 of 6; under setting [4], 5 of 6.
With `O=C1C2C3CCC(C2C(=O)N1CO)C1C2C(=O)N(CO)C(=O)C2C31` (stereo not drawn), the T/C (dose: 50.0 mg/kg/injection, schedule: Q01DX009 (ip), vehicle: saline with Tween-80) is 145 % of control. In addition, the survivor count under setting [5] is 0 of 5 and 5 of 6.
In the case of `O=C(c1ccc(OCC(O)CN2CCN(c3ccccc3)CC2)cc1)c1cc2ccccc2c2ccccc12` (stereo not drawn), the survivor count was 4 of 6 (dose: 400.0 mg/kg/injection, schedule: Q04DX003 (ip), vehicle: alcohol) and 4 of 6 (dose: 400.0 mg/kg/injection, schedule: Q04DX003 (ip), vehicle: other).
Regarding `O=S1(=O)C=C(Cl)C1`, for the setting “dose: 200.0 mg/kg/injection, schedule: Q01DX005 (ip), vehicle: saline with Tween-80”, the survivor count is given as 0 of 6.
In the case of `CCOC(=O)C(Cc1ccc(N(CCCl)CCCl)cc1)NC(=O)C(N)CCC(=O)O` (stereo not drawn), the T/C reads like this: (dose: 5.0 mg/kg/injection, schedule: Q04DX003 (ip), vehicle: water) 125 % of control; (dose: 25.0 mg/kg/injection, schedule: Q01DX009 (ip), vehicle: Klucel (hydroxypropylcellulose) (HPC)) 128 % of control. In addition, the survivor count (dose: 50.0 mg/kg/injection, schedule: Q01DX009 (ip), vehicle: Klucel (hydroxypropylcellulose) (HPC)) is on record as 5 of 6; the survivor count (dose: 80.0 mg/kg/injection, schedule: Q04DX003 (ip), vehicle: water) is 2 of 6; the survivor count (dose: 100.0 mg/kg/injection, schedule: Q01DX009 (ip), vehicle: Klucel (hydroxypropylcellulose) (HPC)) is recorded as 3 of 6; the survivor count (dose: 160.0 mg/kg/injection, schedule: Q04DX003 (ip), vehicle: water) is 0 of 6; the survivor count under setting [1] is recorded as 0 of 6.
For `CCOC(=O)C(=CNc1ccc2n[nH]nc2c1)C(=O)OCC`, under setting [1], the survivor count is on record as 2 of 6.
As to `CCOP(=O)(O)OCC.CCOP(=O)(O)OCC.[O]=[V]`, the survivor count (dose: 400.0 mg/kg/injection, schedule: Q01DX001 (ip), vehicle: Klucel (hydroxypropylcellulose) (HPC)) is on record as 1 of 6.
For the compound `CCCCCCCCCCCCCCC(Br)C(=O)O` (stereo not drawn), under setting [3], the survivor count is listed as 6 of 6.
For the compound `CC1CCC(C)N1P(=O)(N1CC1)N1CC1` (stereo not drawn), the T/C (dose: 12.5 mg/kg/injection, schedule: Q04DX003 (ip), vehicle: saline) is 133 % of control. Also, the survivor count reads like this: under setting [2], 4 of 6; (dose: 100.0 mg/kg/injection, schedule: Q04DX003 (ip), vehicle: saline) 6 of 6.
